Measured values published in paper doi:10.1101/2020.06.02.095570 (bioRxiv, 2020).
These are yes or no findings as the source states them, for the method shown.

Chains of the proteins cited; added tags and fusions are not shown. Residues count along the entry.
UniProt Q96E22, residues 73-293: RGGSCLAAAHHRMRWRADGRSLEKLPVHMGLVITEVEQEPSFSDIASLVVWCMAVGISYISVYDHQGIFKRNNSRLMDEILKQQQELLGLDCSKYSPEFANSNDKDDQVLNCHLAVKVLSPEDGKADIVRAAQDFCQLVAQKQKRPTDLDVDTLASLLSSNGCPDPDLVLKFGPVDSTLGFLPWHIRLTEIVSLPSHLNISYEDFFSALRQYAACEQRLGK

Target: soluble Nogo-B receptor, cytosolic domain (sNgBR, residues 73*-293*) (human) (UniProt Q96E22)
Experiment: cross-linking

- binding: no binding (tested: 8 μM shcis-PT)
Substance: soluble Nogo-B receptor, cytosolic domain (sNgBR, residues 73*-293*) (from UniProt Q96E22 73-293) (domain or fragment)
